Protein sequences, listed by entry. Tags and fused reporters are not part of them.
UniProt Q9UKL0: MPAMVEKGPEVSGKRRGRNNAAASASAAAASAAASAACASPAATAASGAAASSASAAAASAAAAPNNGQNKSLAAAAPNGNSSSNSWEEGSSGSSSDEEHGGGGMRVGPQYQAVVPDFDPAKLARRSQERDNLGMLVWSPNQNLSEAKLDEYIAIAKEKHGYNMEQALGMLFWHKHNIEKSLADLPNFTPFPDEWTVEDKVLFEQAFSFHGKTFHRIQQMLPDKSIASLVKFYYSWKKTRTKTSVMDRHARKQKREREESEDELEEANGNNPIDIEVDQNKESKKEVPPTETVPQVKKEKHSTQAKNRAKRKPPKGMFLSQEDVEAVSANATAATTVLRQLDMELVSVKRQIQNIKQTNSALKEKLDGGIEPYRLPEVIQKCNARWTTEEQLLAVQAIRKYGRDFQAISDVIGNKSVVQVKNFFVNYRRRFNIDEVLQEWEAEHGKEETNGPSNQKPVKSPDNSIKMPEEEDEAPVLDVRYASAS
UniProt Q96BD5: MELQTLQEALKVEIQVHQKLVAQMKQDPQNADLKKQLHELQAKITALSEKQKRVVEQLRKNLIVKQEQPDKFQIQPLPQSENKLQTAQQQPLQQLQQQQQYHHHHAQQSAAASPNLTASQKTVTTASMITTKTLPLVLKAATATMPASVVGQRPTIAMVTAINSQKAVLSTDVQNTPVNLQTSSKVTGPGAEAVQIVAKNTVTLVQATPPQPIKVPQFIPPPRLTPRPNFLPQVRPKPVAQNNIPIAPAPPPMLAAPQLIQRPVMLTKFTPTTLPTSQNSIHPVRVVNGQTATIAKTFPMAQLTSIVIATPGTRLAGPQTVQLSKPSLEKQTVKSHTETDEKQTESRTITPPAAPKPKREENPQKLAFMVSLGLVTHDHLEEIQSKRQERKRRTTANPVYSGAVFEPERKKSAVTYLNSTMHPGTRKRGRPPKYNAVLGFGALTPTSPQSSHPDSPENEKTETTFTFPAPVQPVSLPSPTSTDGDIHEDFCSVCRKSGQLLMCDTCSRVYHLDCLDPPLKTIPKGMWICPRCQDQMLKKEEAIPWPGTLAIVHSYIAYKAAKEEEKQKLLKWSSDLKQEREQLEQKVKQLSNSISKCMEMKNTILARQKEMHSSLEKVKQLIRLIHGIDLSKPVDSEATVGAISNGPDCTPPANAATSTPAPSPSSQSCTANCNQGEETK
UniProt Q13547: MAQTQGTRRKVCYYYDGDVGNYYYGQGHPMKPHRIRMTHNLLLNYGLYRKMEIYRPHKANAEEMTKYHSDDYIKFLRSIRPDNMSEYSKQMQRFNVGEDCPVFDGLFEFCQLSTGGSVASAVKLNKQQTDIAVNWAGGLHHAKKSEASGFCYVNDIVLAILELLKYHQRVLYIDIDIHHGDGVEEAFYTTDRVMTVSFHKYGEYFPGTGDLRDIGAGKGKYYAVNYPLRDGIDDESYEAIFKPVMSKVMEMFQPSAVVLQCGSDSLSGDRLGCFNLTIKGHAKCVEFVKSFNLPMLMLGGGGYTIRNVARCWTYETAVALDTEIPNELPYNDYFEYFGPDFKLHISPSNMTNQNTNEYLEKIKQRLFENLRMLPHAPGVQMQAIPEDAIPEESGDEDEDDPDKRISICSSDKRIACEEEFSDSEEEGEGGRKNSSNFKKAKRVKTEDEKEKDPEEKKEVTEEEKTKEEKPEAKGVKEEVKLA
UniProt O75461: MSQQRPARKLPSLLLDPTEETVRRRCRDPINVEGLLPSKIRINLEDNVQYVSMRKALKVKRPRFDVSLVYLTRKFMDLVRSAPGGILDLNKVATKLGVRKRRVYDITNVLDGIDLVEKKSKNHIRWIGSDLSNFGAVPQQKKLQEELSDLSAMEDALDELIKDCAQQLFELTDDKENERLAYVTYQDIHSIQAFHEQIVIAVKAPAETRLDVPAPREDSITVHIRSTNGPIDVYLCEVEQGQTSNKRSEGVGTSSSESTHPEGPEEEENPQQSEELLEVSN

In article PMC8763317:

What was measured:
Experiment in all cases: proximity labelling; BioID in HEK293T cells: BirA*-fused bait transiently transfected, 50 uM biotin for 18 hours; lysate sonicated, biotinylated proteins isolated on streptavidin agarose beads, trypsin digest, LC-MS/MS, label free quantitation; enrichment over BirA*-NLS control (Student's t-test, FDR 0.05, S0 = 2); triplicate or quadruplicate
BirA*-CoREST1 = BirA*-CoREST1 (UniProt Q9UKL0)
BirA*-PHF21A = BirA*-PHF21A (UniProt Q96BD5)
HDAC1-BirA* = HDAC1-BirA* (UniProt Q13547)

binding (BirA*-CoREST1) | binding (BirA*-PHF21A) | binding (HDAC1-BirA*) | Substance
binds | binds | binds | E2F6 (from UniProt O75461 1-281)
 | binds |  | CTBP2 (from UniProt P56545 1-445)

These are yes or no findings as the source states them, for the method shown. In cells and extracts the contact can be indirect. These calls come from enrichment with a bait or labelling near it, and not all partners need be listed.
